Measurements from “University of Dundee, Small-Polar-MMV Screening Library” (2021), ChEMBL document CHEMBL3988442.

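Whole-cell growth test on Mycobacterium tuberculosis, read after 4 days in a medium based on cholesterol and the lipid DPPC; the read-out is not stated. Tested at 50 µM. Direction is inferred from retests: higher values go with more growth inhibition. Size under these conditions: about 69,000 compounds, about 370 of them at 50% or above in at least one test.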

The filed quantity is “Percent Effect” (%).
How 0% and 100% were set is not recorded. Most values in the screen are low, and negative values occur.
The compounds are a random part of those screened.
Two or more numbers in one place are separate tests of the same structure; such repeats can differ widely.

* CCCN1CCc2c(C(=O)N(C)Cc3ccccn3)nn(C)c2C1.O=C(O)C(F)(F)F.O=C(O)C(F)(F)F.O=C(O)C(F)(F)F : -7.126%
* CCN1CCOCC2(CCCN(c3nncs3)C2)C1 (stereo not given) : -1.29%
* Cc1ncc2c(n1)CCCC2NC(=O)c1ccccc1C(=O)O (stereo not given) : -19.88%
* CN(Cc1n[nH]c2c1CCC2)C(=O)CCc1cc2n(n1)CCNC2 : -19.06%
* [H][C@]12CN(Cc3cccc(C)c3)C(=O)[C@@]1([H])CN(S(=O)(=O)CC)C2 : 2.152%
* Cc1occc1C(=O)N1Cc2nccn2CC(CN2CCCC2)C1.O=C(O)C(F)(F)F (stereo not given) : -9.203% & -4.992%
* O=C(c1cscn1)N1CCC2(CC1)CN(c1ccccn1)CCO2 : -3.181%
* O=C(CCc1ccccc1)Nc1ncccc1OC(F)F : -17.24%
* CC(C(=O)NS(=O)(=O)Cc1cc(-c2ccccc2)no1)C1CC1 (stereo not given) : 9.273%
* COc1cccc(C2=CCN(CCN3CCCC3=O)CC2)c1 : 8.987%
* Cc1cc(C)n(C2CN(CCc3ccncc3)C2)n1 : 11.04%
* O=C(NCc1ccccc1CO)Nc1ccc2c(c1)CCO2 : -22.65%
* CCc1n[nH]c(C2CN(C(=O)c3cscn3)CCO2)n1 (stereo not given) : -52.22%
* Cc1nc(C)n(CC2CCCN2Cc2cn3ccsc3n2)n1 (stereo not given) : -13.74%
* CCNC(=O)[C@@H]1C[C@@H](NC(=O)c2ccsc2)CN1CCCSC : 27.78%
* COc1cccc2cc(CNC(=O)N3CCS(=O)(=O)CC3)oc12 : 7.748%
* O=C1CC(NCc2cccc(O)c2)CN1CCc1cccc(Cl)c1 (stereo not given) : 7.448%
* CCNc1cc2c(nn1)CCN(C(=O)c1ccnc(-n3ccnc3)c1)C2 : -15.47%
* O=C(c1ccc2c(c1)OCO2)N1CCC[C@]2(C[C@H](OCC3CC3)CO2)C1 : -30.83%
* Cn1c(N)c2c(=O)n(C)c(-c3ccccc3)cc2c(C#N)c1=O : 6.826%
* CSc1ccc(CN(C)Cc2noc(C(C)(C)C)n2)cc1 : -5.505%
* Cc1ccc(OCC(O)COC2CCOCC2)c(Br)c1 (stereo not given) : 16.66%
* CN1CCCC(CCC(=O)N2CCc3c(nc(CC4CC4)[nH]c3=O)C2)C1 (stereo not given) : 8.014%
* Cc1ccccc1S(=O)(=O)N1CCCCC1c1ccn[nH]1 (stereo not given) : -14.43%
* O=C(O)C(F)(F)F.O=C(O)C(F)(F)F.[H][C@@]12CCCO[C@]1([H])[C@H](N(C)Cc1ccco1)CN2Cc1c(C)noc1C : -2.323% & -9.958%
* Cc1nc(C(=O)N2CC[C@@]3(C[C@H](NS(C)(=O)=O)CCO3)C2)cs1 : -4.662% & 10.03%
* CC(=O)c1cccc(OCCCC(=O)N(C)CCC(F)(F)F)c1 : 8.809%
* CC(C)c1cc(CNC(=O)N2CCC(Cc3cnn(C)c3)C2)on1 (stereo not given) : 8.539%
* CCOCCCC(=O)NCC(c1ccccc1)N1CCc2sccc2C1 (stereo not given) : -16.99%
* CCCS(=O)(=O)NC(=O)c1sc(C2CCCC2)nc1C : -7.971%
* CNC(=O)CN(C)C(=O)c1ccc(-c2nc(C)cs2)cc1 : -2.406%
* O=C(NCCCn1nc2ccccn2c1=O)Nc1ccccc1Cl : -15.4%
* CCc1ccc2nc(C)cc(C(=O)NC[C@@H]3CCNC[C@H]3O)c2c1 : -2.314%
* CCn1ncc(NC(=O)c2cc(C3CC3)nc3c2c(C)nn3C)c1C : 2.362%
* CC(C)c1nn(C)c(Cl)c1CNCCn1cccn1 : -6.823% & 0.1032%
* Cc1cc(NC(=O)C(C)Oc2ccc3c(c2)OCO3)no1 (stereo not given) : -8.592%
* CCN1CC(C(=O)NCCc2csc(-c3ccncc3)n2)CC1=O (stereo not given) : -23.52%
* CCn1ccnc1CN1CCCN(C(=O)c2cnn(C)c2)CC1 : -16.88%
* CC(=O)Nc1ccc(SCC(O)COCc2ccccc2)cc1 (stereo not given) : 6.236%
* FC(F)(F)C1CCc2nnc(CNCc3ccsc3)n2C1 (stereo not given) : 11.52%
* CN1CCC(c2cccc(-c3ccc(C(=O)O)cc3)n2)CC1 : 2.758%
* O=S(=O)(NCC1(O)CCOCC1)c1ccccc1Br : -0.8195%
* CCOC(=O)N1CCC(NCC2CCN(c3cnn(C)c(=O)c3)C2)CC1 (stereo not given) : -3.865%
* Cc1ccsc1CNC(=O)NC1CCCc2c1cnn2CCO (stereo not given) : -6.308%
* [H][C@@]12CCCO[C@]1([H])[C@@H](NS(C)(=O)=O)CN2C(=O)c1cscn1 : 3.121%
* COc1ccc(CN2CCC3(CC2)CCN(CC(C)C)C3=O)cc1.O=C(O)C(F)(F)F : 9.961%
* Cc1c[nH]c(C2COCCN2C(=O)c2n[nH]c(=O)c3ccccc23)n1 (stereo not given) : 1.378% & 2.59%

Once more, the final 5:

SMILES,effect
CCOC(=O)N1CCC(NCC2CCN(c3cnn(C)c(=O)c3)C2)CC1 (stereo not given),-3.865
Cc1ccsc1CNC(=O)NC1CCCc2c1cnn2CCO (stereo not given),-6.308
[H][C@@]12CCCO[C@]1([H])[C@@H](NS(C)(=O)=O)CN2C(=O)c1cscn1,3.121
COc1ccc(CN2CCC3(CC2)CCN(CC(C)C)C3=O)cc1.O=C(O)C(F)(F)F,9.961
Cc1c[nH]c(C2COCCN2C(=O)c2n[nH]c(=O)c3ccccc23)n1 (stereo not given),1.378 & 2.59